In US20030108920A1:
No constants are given. Whether binding was seen depends on the method and setting. For part of these data: Binding seen in cells or lysates may run through a third protein. Some results given as binding are weak or reduced against the parent protein; the word gives no strength.

Amino acid sequences for entries named in this document (tags omitted). Residues count along the entry.
UniProt P18065, residues 36-325: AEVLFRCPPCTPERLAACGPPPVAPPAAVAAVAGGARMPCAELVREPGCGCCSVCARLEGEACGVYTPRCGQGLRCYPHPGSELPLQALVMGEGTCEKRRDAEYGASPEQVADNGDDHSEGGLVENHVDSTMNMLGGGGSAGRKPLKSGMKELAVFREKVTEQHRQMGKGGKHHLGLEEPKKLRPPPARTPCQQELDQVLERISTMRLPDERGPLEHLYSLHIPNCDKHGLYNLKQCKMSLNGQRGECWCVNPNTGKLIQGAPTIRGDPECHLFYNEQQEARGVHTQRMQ

Assays:
[1] = molecular target: Insulin-Like Growth Factor Binding Protein 2 (IGFBP2) (UniProt P18065); assay: yeast two-hybrid screen
[2] = molecular target: Insulin-Like Growth Factor Binding Protein 2 (IGFBP2) (UniProt P18065); assay: yeast two-hybrid screen of a human fetal brain cDNA library (growth on Ade His media, blue with X-gal)
[3] = molecular target: Insulin-Like Growth Factor Binding Protein 2 (IGFBP2) (UniProt P18065); assay: co-immunoprecipitation in HEK 293 cells

binding [1]: binds
binding [2]: binds
binding [3]: binds
B1: clone 86 protein (protein)
chain: ACRGDLRDVARSGVASLPPAKCQHQESLGRPRPHSAPSLGTSSLRDPEPSGRLGDPGPQEAQTPRSILAQQSKLSKPRVTFSEESAVPERSWRLRPYLGYDWIAGSLDTSSSITSQPEAFFSKLQEFRETNKEECICSHPEPQLPGLRESSGSGVEEDHECVYCYRVNRRLFPVPVDPGTPCRLCRTPRDQQGPGTLAQPAHVRVSIPLSILEPPHRYHIHRRKSFDASDTLALPRHCLLGWDIFPPKSEKSSAPRNLDLWSSVSAEAQHQKLSGTSSPFHPGPALQP
